Measurements reported in paper doi:10.1101/162271.
Where two headings read alike, the source gives them in different places. Results are given in words; binding and its absence hold for the method and conditions named. Binding seen in cells or lysates may run through a third protein. These calls come from enrichment with a bait or labelling near it, and not all partners need be listed. Values belong to the molecule of their own block, whether it stands above or below them.

Sequences of proteins named here, by UniProt entry; tags and fusion partners are left off.
UniProt Q9SQI2: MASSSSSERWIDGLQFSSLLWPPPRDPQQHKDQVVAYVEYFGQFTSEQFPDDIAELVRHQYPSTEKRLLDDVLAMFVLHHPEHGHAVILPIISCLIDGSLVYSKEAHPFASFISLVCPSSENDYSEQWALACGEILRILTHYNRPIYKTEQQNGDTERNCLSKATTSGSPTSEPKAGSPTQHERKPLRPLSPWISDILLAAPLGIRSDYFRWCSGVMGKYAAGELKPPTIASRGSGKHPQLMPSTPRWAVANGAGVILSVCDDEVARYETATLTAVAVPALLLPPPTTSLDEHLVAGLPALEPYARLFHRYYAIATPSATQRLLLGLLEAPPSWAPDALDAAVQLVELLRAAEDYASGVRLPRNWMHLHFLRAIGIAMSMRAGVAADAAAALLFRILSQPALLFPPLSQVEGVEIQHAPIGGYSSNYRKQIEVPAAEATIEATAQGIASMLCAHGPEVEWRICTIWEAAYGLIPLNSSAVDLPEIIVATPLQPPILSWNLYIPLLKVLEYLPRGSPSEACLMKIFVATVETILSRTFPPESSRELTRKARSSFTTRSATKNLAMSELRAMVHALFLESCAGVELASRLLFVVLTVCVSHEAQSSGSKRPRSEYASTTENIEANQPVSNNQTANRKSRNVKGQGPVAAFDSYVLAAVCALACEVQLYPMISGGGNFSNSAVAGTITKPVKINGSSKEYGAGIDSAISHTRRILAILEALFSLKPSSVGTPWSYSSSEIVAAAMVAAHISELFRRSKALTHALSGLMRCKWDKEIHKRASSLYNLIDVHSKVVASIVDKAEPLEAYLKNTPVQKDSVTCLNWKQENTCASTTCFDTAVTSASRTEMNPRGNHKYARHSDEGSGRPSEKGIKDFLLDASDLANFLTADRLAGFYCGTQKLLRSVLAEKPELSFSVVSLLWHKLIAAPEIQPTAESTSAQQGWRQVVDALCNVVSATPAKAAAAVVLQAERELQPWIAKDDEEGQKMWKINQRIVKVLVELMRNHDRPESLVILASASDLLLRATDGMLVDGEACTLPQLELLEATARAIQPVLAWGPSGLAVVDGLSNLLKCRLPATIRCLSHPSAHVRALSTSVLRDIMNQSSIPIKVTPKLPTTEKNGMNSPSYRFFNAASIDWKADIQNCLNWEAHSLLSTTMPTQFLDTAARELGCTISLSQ
UniProt Q9C9W9: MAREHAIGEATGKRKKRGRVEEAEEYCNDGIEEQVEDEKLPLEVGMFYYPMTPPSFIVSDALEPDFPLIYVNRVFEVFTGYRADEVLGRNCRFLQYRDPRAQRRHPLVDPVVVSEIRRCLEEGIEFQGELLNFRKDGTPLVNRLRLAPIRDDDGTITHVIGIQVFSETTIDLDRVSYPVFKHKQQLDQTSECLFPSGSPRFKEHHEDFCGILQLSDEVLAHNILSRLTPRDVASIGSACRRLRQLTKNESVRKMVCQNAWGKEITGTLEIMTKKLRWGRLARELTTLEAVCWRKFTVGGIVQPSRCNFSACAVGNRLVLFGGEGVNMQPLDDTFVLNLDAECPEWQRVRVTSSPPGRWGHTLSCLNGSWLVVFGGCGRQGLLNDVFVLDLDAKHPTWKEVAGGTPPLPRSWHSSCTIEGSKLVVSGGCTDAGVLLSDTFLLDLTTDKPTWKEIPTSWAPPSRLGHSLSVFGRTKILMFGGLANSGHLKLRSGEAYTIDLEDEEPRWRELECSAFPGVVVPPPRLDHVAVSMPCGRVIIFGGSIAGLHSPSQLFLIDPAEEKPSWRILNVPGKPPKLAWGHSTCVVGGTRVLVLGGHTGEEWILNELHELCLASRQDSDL
UniProt Q8W420: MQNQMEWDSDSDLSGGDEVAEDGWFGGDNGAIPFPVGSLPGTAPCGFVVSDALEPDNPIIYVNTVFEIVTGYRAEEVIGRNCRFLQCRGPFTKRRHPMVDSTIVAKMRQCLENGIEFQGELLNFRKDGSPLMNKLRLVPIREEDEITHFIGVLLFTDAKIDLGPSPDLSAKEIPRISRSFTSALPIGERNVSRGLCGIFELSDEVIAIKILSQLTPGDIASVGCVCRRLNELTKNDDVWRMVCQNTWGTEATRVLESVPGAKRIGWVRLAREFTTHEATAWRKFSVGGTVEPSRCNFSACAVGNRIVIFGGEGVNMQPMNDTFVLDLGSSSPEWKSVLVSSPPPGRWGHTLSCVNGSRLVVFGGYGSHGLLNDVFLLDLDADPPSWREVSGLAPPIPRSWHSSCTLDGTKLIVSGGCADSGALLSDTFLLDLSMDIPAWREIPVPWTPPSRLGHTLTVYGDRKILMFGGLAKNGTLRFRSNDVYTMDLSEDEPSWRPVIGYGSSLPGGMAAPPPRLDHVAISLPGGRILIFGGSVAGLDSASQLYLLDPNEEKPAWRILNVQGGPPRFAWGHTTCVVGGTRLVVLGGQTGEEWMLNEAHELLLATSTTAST
UniProt Q94BT6: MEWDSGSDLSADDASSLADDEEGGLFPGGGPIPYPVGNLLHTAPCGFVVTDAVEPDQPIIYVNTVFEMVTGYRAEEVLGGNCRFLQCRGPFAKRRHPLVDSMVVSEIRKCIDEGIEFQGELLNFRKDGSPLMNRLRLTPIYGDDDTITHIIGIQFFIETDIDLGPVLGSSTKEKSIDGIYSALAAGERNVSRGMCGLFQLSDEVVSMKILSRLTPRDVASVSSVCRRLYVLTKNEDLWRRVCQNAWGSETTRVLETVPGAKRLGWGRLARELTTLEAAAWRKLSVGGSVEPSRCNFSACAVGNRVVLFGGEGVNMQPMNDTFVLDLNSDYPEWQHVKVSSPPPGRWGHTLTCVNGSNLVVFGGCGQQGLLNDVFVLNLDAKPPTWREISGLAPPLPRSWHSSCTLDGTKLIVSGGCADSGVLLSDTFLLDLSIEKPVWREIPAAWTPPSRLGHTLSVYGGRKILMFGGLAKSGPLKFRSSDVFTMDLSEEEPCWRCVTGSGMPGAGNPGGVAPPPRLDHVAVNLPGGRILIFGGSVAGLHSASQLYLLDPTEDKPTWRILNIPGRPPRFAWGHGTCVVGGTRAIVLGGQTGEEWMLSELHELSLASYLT
UniProt P28769: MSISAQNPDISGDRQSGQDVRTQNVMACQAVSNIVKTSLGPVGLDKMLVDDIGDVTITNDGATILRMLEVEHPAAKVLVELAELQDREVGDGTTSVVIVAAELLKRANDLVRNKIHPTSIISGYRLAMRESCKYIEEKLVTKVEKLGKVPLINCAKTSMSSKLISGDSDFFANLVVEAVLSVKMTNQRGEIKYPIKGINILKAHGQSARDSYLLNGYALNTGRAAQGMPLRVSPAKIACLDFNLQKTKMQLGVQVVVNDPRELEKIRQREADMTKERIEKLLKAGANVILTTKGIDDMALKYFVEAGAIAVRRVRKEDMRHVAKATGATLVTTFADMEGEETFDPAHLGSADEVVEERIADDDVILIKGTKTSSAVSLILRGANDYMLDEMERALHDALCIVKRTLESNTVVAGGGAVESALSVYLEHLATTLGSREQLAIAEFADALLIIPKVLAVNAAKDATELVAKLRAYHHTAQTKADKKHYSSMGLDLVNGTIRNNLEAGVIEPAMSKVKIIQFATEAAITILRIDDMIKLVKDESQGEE

How the values were obtained:
Test in all cases: affinity purification with mass spectrometry
[1] = biological target: 3xFlag-, 6xHis-tagged GIGANTEA protein (GI:3F6H) (Arabidopsis thaliana) (UniProt Q9SQI2)
[2] = biological target: 3xFlag-, 6xHis-tagged GIGANTEA protein (GI:3F6H) (Arabidopsis thaliana) (UniProt Q9SQI2); remark: listed apart in the source
[3] = biological target: 3xFlag-, 6xHis-tagged GIGANTEA protein (GI:3F6H) (Arabidopsis thaliana) (UniProt Q9SQI2); remark: listed apart in the source
[4] = biological target: 3xFlag-, 6xHis-tagged GIGANTEA protein (GI:3F6H) (Arabidopsis thaliana) (UniProt Q9SQI2); remark: listed apart in the source
[5] = biological target: 3xFlag-, 6xHis-tagged GIGANTEA protein (GI:3F6H) (Arabidopsis thaliana) (UniProt Q9SQI2); remark: listed apart in the source
[6] = biological target: 3xFlag-, 6xHis-tagged GIGANTEA protein (GI:3F6H) (Arabidopsis thaliana) (UniProt Q9SQI2); remark: listed apart in the source

binding [1]: binds | binding [2]: binds | binding [3]: binds
Molecule: FLAVIN-BINDING, KELCH REPEAT, F-BOX 1 (from UniProt Q9C9W9 1-619)

binding [1]: binds | binding [2]: binds | binding [3]: binds
Molecule: LKP2 (from UniProt Q8W420 1-611)

binding [1]: binds | binding [2]: binds | binding [3]: binds
Molecule: ZEITLUPE (from UniProt Q94BT6 1-609)

binding [4]: binds | binding [1]: binds
Molecule: TCP-1/cpn60 chaperonin family protein At3g20050 (from UniProt P28769 1-545)

binding [5]: binds
B1: phosphofructokinase family protein At1g20950 (enzyme, UniProt Q9SYP2 1-614)
chain: MDSDFGIPRELSPLQQLRSQYKPELPPCLQGTTVRVELGDGTTVAEAADSHTMARAFPHTLGQPLAHFLRETAQVPDAHIITELPSVRVGIVFCGRQAPGGHNVIWGLFEALKVHNAKSTLLGFLGGSEGLFAQKTLEITDDILQTYKNQGGYDLLGRTKDQIKTTEQVNAALKACTDLKLDGLVIIGGVISNTDAAHLAEFFAAAKCSTKVVGVPVTTNGDLKNQFVEANVGFDTICKVNSQLISNACTDALSAEKYYYFIRLMGRKHSHVALECTLQSHPNMVILGEEVAASKLTIFDIAKQICDAVQARAVEDKNHGVILIPEGLIVSIPEVYALLKEIHGLLRQGVSADKISTQLSPWSSALFEFLPPFIKKQLLLHPESDDSAQLSQIETEKLLAYLVETEMNKRLKEGTYKGKKFNAICHFFGYQARGSLPSKFDCDYAYVLGHICYHILAAGLNGYMATVTNLKSPVNKWKCGATPITAMMTVKHWSQDASYTLTSIGRPAIHPAMVDLKGKAYDLLRQNAQKFLMEDLYRNPGPLQYDGPGADAKAVSLCVEDQDYMGRIKKLQEYLDQVRTIVKPGCSQDVLKAALSVMASVTDVLTTISSNGGQ

binding [5]: binds
B2: methionine cycle protein At3g03780 (enzyme, UniProt Q9SRV5 1-765)
chain: MASHIVGYPRMGPKRELKFALESFWDGKSSADDLQKVSADLRSDIWKQMSAAGIKYIPSNTFSHYDQVLDTTAMLGAVPSRYGFTSGEIGLDVYFSMARGNASVPAMEMTKWFDTNYHYIVPELGPEVKFSYASHKAVNEYKEAKALGVETVPVLVGPVSYLLLSKLAKGVDKSFDLLSLLPKILPVYKEVIAELKAAGASWIQLDEPLFVMDLEGHKLQAFSGAYAELESTLSGLNVLVETYFADIPAEAYKTLTSLKGVTAFGFDLVRGTKTIDLIKSGFPQGKYLFAGVVDGRNIWANDLAASLITLQSLEGVVGKDKLVVSTSCSLLHTAVDLINETKLDAEIKSWLAFAAQKVVEVDALAKALAGQTNESFFTANADALSSRRSSPRVTNESVQKAAAALKGSDHRRTTEVSARLDAQQKKLNLPILPTTTIGSFPQTVELRRVRREYKAKKISEEDYVKAIKEEIKKVVDIQEDLDIDVLVHGEPERNDMVEYFGEQLSGFAFTANGWVQSYGSRCVKPPVIYGDVSRPKPMTVFWSSTAQSMTKRPMKGMLTGPVTILNWSFVRNDQPRHETCYQIALAIKDEVEDLEKGGIGVIQIDEAALREGLPLRKAEHSFYLDWAVHSFRITNCGVQDSTQIHTHMCYSNFNDIIHSIIDMDADVITIENSRSDEKLLSVFREGVKYGAGIGPGVYDIHSPRIPSTDEIADRINKMLAVLEQNILWVNPDCGLKTRKYTEVKPALKAMVDAAKLIRSQLGSAK

binding [6]: binds | binding [5]: binds
B3: GTP-binding translation factor At1g56070 (protein, UniProt Q9ASR1 1-843)
chain: MVKFTADELRRIMDYKHNIRNMSVIAHVDHGKSTLTDSLVAAAGIIAQEVAGDVRMTDTRADEAERGITIKSTGISLYYEMTDESLKSFTGARDGNEYLINLIDSPGHVDFSSEVTAALRITDGALVVVDCIEGVCVQTETVLRQALGERIRPVLTVNKMDRCFLELQVDGEEAYQTFSRVIENANVIMATYEDPLLGDVQVYPEKGTVAFSAGLHGWAFTLTNFAKMYASKFGVVESKMMERLWGENFFDPATRKWSGKNTGSPTCKRGFVQFCYEPIKQIIATCMNDQKDKLWPMLAKLGVSMKNDEKELMGKPLMKRVMQTWLPASTALLEMMIFHLPSPHTAQRYRVENLYEGPLDDQYANAIRNCDPNGPLMLYVSKMIPASDKGRFFAFGRVFAGKVSTGMKVRIMGPNYIPGEKKDLYTKSVQRTVIWMGKRQETVEDVPCGNTVAMVGLDQFITKNATLTNEKEVDAHPIRAMKFSVSPVVRVAVQCKVASDLPKLVEGLKRLAKSDPMVVCTMEESGEHIVAGAGELHLEICLKDLQDDFMGGAEIIKSDPVVSFRETVCDRSTRTVMSKSPNKHNRLYMEARPMEEGLAEAIDDGRIGPRDDPKIRSKILAEEFGWDKDLAKKIWAFGPETTGPNMVVDMCKGVQYLNEIKDSVVAGFQWASKEGPLAEENMRGICFEVCDVVLHSDAIHRGGGQVIPTARRVIYASQITAKPRLLEPVYMVEIQAPEGALGGIYSVLNQKRGHVFEEMQRPGTPLYNIKAYLPVVESFGFSSQLRAATSGQAFPQCVFDHWEMMSSDPLEPGTQASVLVADIRKRKGLKEAMTPLSEFEDKL

binding [5]: binds
B4: TREHALOSE PHOSPHATE SYNTHASE 8 (protein, UniProt Q0WUI9 1-856)
chain: MVSRSCANFLDLSSWDLLDFPQTPRTLPRVMTVPGIITDVDGDTTSEVTSTSGGSRERKIIVANMLPLQSKRDAETGKWCFNWDEDSLQLQLRDGFSSETEFLYVGSLNVDIETNEQEEVSQKLLEEFNCVATFLSQELQEMFYLGFCKHQLWPLFHYMLPMFPDHGDRFDRRLWQAYVSANKIFSDRVMEVINPEDDYVWIQDYHLMVLPTFLRKRFNRIKLGFFLHSPFPSSEIYRTLPVRDEILRGLLNCDLIGFHTFDYARHFLSCCSRMLGLDYESKRGHIGLDYFGRTVYIKILPVGVHMGRLESVLSLDSTAAKTKEIQEQFKGKKLVLGIDDMDIFKGISLKLIAMEHLFETYWHLKGKVVLVQIVNPARSSGKDVEEAKRETYETARRINERYGTSDYKPIVLIDRLVPRSEKTAYYAAADCCLVNAVRDGMNLVPYKYIVCRQGTRSNKAVVDSSPRTSTLVVSEFIGCSPSLSGAIRVNPWDVDAVAEAVNSALKMSETEKQLRHEKHYHYISTHDVGYWAKSFMQDLERACRDHYSKRCWGIGFGLGFRVLSLSPSFRKLSVEHIVPVYRKTQRRAIFLDYDGTLVPESSIVQDPSNEVVSVLKALCEDPNNTVFIVSGRGRESLSNWLSPCENLGIAAEHGYFIRWKSKDEWETCYSPTDTEWRSMVEPVMRSYMEATDGTSIEFKESALVWHHQDADPDFGSCQAKEMLDHLESVLANEPVVVKRGQHIVEVKPQGVSKGLAAEKVIREMVERGEPPEMVMCIGDDRSDEDMFESILSTVTNPELLVQPEVFACTVGRKPSKAKYFLDDEADVLKLLRGLGDSSSSLKPSSSHTQVAFESIV
